Inhibition data for one compound are collected here from patent US8993575B2, “[1,3,4] oxadiazole derivative and application thereof” (Huazhong University of Science & Technology, priority 2011, dated 2015).

By UniProt entry, the sequences of proteins in these tests, tags left out. Residues count along the entry.
UniProt P08909, 33-460 limits assumed: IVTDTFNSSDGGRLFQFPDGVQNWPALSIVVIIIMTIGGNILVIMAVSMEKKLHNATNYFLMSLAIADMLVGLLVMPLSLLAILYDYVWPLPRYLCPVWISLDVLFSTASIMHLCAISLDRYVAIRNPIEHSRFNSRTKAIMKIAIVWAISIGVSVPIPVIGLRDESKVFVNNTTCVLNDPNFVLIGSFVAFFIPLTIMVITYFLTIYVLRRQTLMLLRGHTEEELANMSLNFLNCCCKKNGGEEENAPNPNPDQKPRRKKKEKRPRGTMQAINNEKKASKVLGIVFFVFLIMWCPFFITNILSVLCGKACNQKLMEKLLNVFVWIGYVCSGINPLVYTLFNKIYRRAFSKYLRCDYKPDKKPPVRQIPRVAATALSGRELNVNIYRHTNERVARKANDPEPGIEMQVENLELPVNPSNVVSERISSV

The test deals with 5HT2C (Rattus norvegicus (Rat), UniProt P08909). Kind of test: 5HT2C receptor binding assay ([3H]-mesulergine, rat brain mantle membrane). The settings on record: test compound final concentration 10^-5 M. As to the method: Incubation at 37° C. was conducted for 10 min, the weight of the tubes were adjusted using a balance after the incubation. […] Centrifugation was conducted (repeated 3 times).

Usually inhibition stands for the share of the control response that was lost under treatment. `O=C1CCc2ccc(OCCCCN3CCN(c4cccc(Cl)c4Cl)CC3)cc2N1` [aripiprazole, reference compound]: at 10 µM the inhibition was 99.8%.
